# Assay results reported in paper PMC5777986.
# Amino acid sequences for entries named in this document (tags omitted). A change or cut given only in a name is not applied to a line headed by its entry.
# UniProt P69423: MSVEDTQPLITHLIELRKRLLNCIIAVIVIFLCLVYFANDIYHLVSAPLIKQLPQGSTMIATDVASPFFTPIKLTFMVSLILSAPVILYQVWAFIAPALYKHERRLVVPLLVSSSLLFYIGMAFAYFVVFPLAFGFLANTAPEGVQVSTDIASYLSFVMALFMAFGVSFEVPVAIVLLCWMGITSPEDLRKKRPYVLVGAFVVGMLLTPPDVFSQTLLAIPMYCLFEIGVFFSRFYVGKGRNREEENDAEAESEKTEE
# Biological target: TatC (E. coli) (UniProt P69423)
# Assay: cross-linking; inverted inner membrane vesicles (TatABC, TatEBC, TatEABC) diluted in INV-buffer, DCCD (1 µl of 50 mM in 100 µl) added, 20 min on ice, TCA precipitation, 9% Tricine SDS-PAGE, Western blot with antibodies against TatA, TatB, TatC, TatE
substance,measurement,value
TatB (from UniProt P69425),binding,binds

# No constants are given. Whether binding was seen depends on the method and setting. In cells and extracts the contact can be indirect. Binding can be weak; no strength is given.
